Test results published in patent publication US20060009493A1, “Indolinone hydrazides as c-Met inhibitors” (Sugen, Inc., priority 2003, published 2006).
pIC50: −log10 of the molar value. The match of structure and compound is tentative.

Amino acid sequences for entries named in this document (tags omitted). Residues count along the entry.
UniProt P08581, 1078-1345 limits assumed: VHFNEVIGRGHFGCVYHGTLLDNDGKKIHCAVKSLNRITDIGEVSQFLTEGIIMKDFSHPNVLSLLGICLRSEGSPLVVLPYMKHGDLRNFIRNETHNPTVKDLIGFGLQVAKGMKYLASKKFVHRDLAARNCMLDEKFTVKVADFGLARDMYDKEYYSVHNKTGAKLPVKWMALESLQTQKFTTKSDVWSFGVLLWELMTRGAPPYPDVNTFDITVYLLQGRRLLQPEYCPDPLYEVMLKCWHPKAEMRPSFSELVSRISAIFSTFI

Biological target: GST fusion protein containing the Met kinase domain (Homo sapiens, UniProt P08581)
Experiment: MET Transphosphorylation Assay (ELISA, poly(Glu,Tyr) 4:1 substrate)
Assay type: biochemical
Settings: met transphosphorylation of poly(glutamic acid:tyrosine 4:1) substrate, two values in a cell separated by '/'

## Cc1cc(CCN2CCCC2)c(C)c2c1NC(=O)C2=NNC(=O)C(C)c1ccc(O)cc1 (centres unmarked)
Tested form: HCl
  pIC50: 6.70

## CC(C(=O)N/N=C1\C(=O)N(CCN2CCCCC2)c2ccc(OCCN3CCCCC3)c(Cl)c21)c1ccc(F)cc1 (centres unmarked)
  pIC50: < 4.70
